The subject of this assay is synthase of nitrogen oxide (NOC). The assay can be described thus: Morphine abstinence model: activity of synthase of nitrogen oxide (radiometric, [3H]L-citrulline). Type of assay: in vivo, rats Wistar. The following applies: morphine alone.

Consider `CN1CC[C@]23c4c5ccc(O)c4O[C@H]2[C@@H](O)C=C[C@H]3[C@H]1C5` [Morphine, reference compound], for which the “Activity of NOC, Hypothalamus, Control + Morphine” value is 3.42 ± 0.54 pmol/min/mg of protein and the “Activity of NOC, Mesencephalon, Control + Morphine” value was 3.08 ± 0.09 pmol/min/mg of protein.

The values above are taken from patent publication US20070166547A1, “Use of a layer consisting of hydrophobic linear, or two-dimensional polycyclic aromatics as a barrier layer or an encapsulation and electric components constructed with a layer of this type and comprising organic polymers” (priority 2003, published 2007).
